{"source": "PubChem BioAssay AID504784, Drosophila RNAi Screening Center | 2011", "aim": "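Fly genes whose silencing alters how much lipid cells keep in droplets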 (primary screen)", "system": "Drosophila Kc167 embryonic cells", "knock-down reagent": "long dsRNA against Drosophila genes, about 250 ng dsRNA per well", "time to read-out": "4 days", "conditions": "cells fed 400 µM oleic acid bound to BSA", "measured": "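Microscope images give a droplet-to-nucleus area ratio, taken as log and converted to a screen-wide B-score; higher values mean greater lipid storage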", "reading the numbers": "droplet/nuclear area B-score: higher = more stored lipid (overstorage)", "note": "In all, the deposit lists about 17,000 reagents; this is a random part of those with a known target gene and a result. 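Each column is one replicate's B-score; the combined score over replicates was not deposited, so single values may mislead.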 Reagents against one gene are numbered here. Names joined by + are all predicted targets of the reagent. Further read-outs or replicates are left out here. Reagent sequences are not shown."}
{"predicted target":"Arts + Apl","reagent":1,"droplet/nuclear area B-score, replicate 1":1.44}
{"predicted target":"pdm2","reagent":1,"droplet/nuclear area B-score, replicate 1":1.86}
{"predicted target":"pdm2","reagent":2,"droplet/nuclear area B-score, replicate 1":0.587}
{"predicted target":"pdm2","reagent":3,"droplet/nuclear area B-score, replicate 1":-0.802}
{"predicted target":"CG8837","reagent":1,"droplet/nuclear area B-score, replicate 1":-0.463}
{"predicted target":"CG31008","reagent":1,"droplet/nuclear area B-score, replicate 1":-0.783}
{"predicted target":"CG5404","reagent":1,"droplet/nuclear area B-score, replicate 1":-0.0743}
{"predicted target":"lncRNA:CR30055","reagent":1,"droplet/nuclear area B-score, replicate 1":-0.431}
{"predicted target":"TRAM","reagent":1,"droplet/nuclear area B-score, replicate 1":-0.681}
{"predicted target":"TRAM","reagent":2,"droplet/nuclear area B-score, replicate 1":0.0637}
{"predicted target":"TyrRS","reagent":1,"droplet/nuclear area B-score, replicate 1":0.944}
{"predicted target":"CR30409","reagent":1,"droplet/nuclear area B-score, replicate 1":-1.67}
{"predicted target":"CG2614","reagent":1,"droplet/nuclear area B-score, replicate 1":0.554}
{"predicted target":"RabGGTa","reagent":1,"droplet/nuclear area B-score, replicate 1":1.45}
{"predicted target":"Arl6","reagent":1,"droplet/nuclear area B-score, replicate 1":0.159}
{"predicted target":"CG13229","reagent":1,"droplet/nuclear area B-score, replicate 1":0.772}
{"predicted target":"Klc","reagent":1,"droplet/nuclear area B-score, replicate 1":0.145}
{"predicted target":"santa-maria","reagent":1,"droplet/nuclear area B-score, replicate 1":-0.055}
{"predicted target":"santa-maria","reagent":2,"droplet/nuclear area B-score, replicate 1":-0.958}
{"predicted target":"Nep5","reagent":1,"droplet/nuclear area B-score, replicate 1":-0.00678}
{"predicted target":"CG12679","reagent":1,"droplet/nuclear area B-score, replicate 1":0.993}
{"predicted target":"Ten-a","reagent":1,"droplet/nuclear area B-score, replicate 1":0.518}
{"predicted target":"Ten-a","reagent":2,"droplet/nuclear area B-score, replicate 1":-0.0584}
{"predicted target":"Ten-a","reagent":3,"droplet/nuclear area B-score, replicate 1":0.476}
{"predicted target":"Ten-a","reagent":4,"droplet/nuclear area B-score, replicate 1":0.00765}
{"predicted target":"Ten-a","reagent":5,"droplet/nuclear area B-score, replicate 1":0.327}
{"predicted target":"Ten-a","reagent":6,"droplet/nuclear area B-score, replicate 1":1.03}
{"predicted target":"Ten-a","reagent":7,"droplet/nuclear area B-score, replicate 1":-1.97}
{"predicted target":"Ten-a","reagent":8,"droplet/nuclear area B-score, replicate 1":-1.55}
{"predicted target":"Ten-a","reagent":9,"droplet/nuclear area B-score, replicate 1":-3.35}
{"predicted target":"Art4","reagent":1,"droplet/nuclear area B-score, replicate 1":0.187}
{"predicted target":"sncRNA:430e + His2A:CG33859 + His2A:CG33817 + 37 more","reagent":1,"droplet/nuclear area B-score, replicate 1":-1.13}
{"predicted target":"Marf1","reagent":1,"droplet/nuclear area B-score, replicate 1":1.08}
{"predicted target":"Marf1","reagent":2,"droplet/nuclear area B-score, replicate 1":0.0286}
{"predicted target":"kuz","reagent":1,"droplet/nuclear area B-score, replicate 1":-0.0546}
{"predicted target":"CG14483","reagent":1,"droplet/nuclear area B-score, replicate 1":-0.0481}
{"predicted target":"Bx","reagent":1,"droplet/nuclear area B-score, replicate 1":0.674}
{"predicted target":"Bx","reagent":2,"droplet/nuclear area B-score, replicate 1":-0.467}
{"predicted target":"CG1671","reagent":1,"droplet/nuclear area B-score, replicate 1":0.926}
{"predicted target":"CG13385","reagent":1,"droplet/nuclear area B-score, replicate 1":-0.213}

Part of the list above in another layout:
predicted target | reagent | droplet/nuclear area B-score, replicate 1
Ten-a | 8 | -1.55
Ten-a | 9 | -3.35
